Test results: publication PMC10202959

Key:
[1] = target: T1, placenta growth factor PlGF-2 (human) (UniProt P49763); experiment: ELISA; by the methods: plates coated with 100 nM PlGF-2, AREG or NRTN, ECM proteins at increasing concentration in PBS-T with 0.1% BSA, detected with HRP-conjugated antibodies against ECM proteins; KD from a one site specific binding model (the legend of Fig. 1e tells the reverse orientation); both purified
T1 sequence: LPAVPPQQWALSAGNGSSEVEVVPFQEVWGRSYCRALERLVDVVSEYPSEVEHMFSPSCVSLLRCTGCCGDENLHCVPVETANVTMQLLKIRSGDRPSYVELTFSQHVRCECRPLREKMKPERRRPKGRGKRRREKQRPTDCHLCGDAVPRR

neurturin (NRTN) (human) [2] = target: T2, neurturin (NRTN) (human) (UniProt Q99748); experiment: ELISA; plates coated with 100 nM protein candidate or BSA, blocked with 1% BSA; 100 nM ECM protein in PBS-T with 0.1% BSA, 1 h at 37 °C; bound ECM protein detected with HRP-conjugated antibodies; fold change over BSA control; both purified
T2 sequence: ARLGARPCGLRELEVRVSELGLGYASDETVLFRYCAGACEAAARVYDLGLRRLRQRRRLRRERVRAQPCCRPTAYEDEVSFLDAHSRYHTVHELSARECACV

neurturin (NRTN) (human) [3] = target: T2, neurturin (NRTN) (human); experiment: ELISA; by the methods: plates coated with 100 nM PlGF-2, AREG or NRTN, ECM proteins at increasing concentration in PBS-T with 0.1% BSA, detected with HRP-conjugated antibodies against ECM proteins; KD from a one site specific binding model (the legend of Fig. 1e tells the reverse orientation); both purified

Row | Substance | binding [1] | binding (neurturin (NRTN) (human) [2]) | binding (neurturin (NRTN) (human) [3])
1 | human fibrinogen (complex) | binds |  | 
2 | human plasma fibronectin | binds | binds | binds

These are yes or no findings as the source states them, for the method shown. Binding can be weak; no strength is given.
